“And” between values parts separate entries of the source, which are not always exact repeats. Equal values may be shown once. Inconclusive means that the source gave no clear call. Such entries were picked first, then a sample of the others. Where the call is inconclusive, the potency comes from a doubtful curve fit. The source made the active and inactive calls. Rule for the calls: active = hit-call score of the fitted dose curve at least 0.9, where 1 is the maximum; inconclusive = response in the unintended direction; inactive = score below 0.9.
Experiment: ATG_M_06_TRANS: Attagene TRANS-FACTORIAL HepG2 Assay for M06 Transcription Factor (Internal Marker) (AID 2282983);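 for AC50: potency for rise in reporter mRNA above DMSO baseline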
Details: HepG2 Attagene TRANS M06 internal marker reporter
Description: ATG_TRANS is a cell-based, multiplexed-readout assay that uses HepG2, a human liver cell line, with measurements taken at 24 hours after chemical dosing in a 24-well plate.ATG_M_06_TRANS is one of 30 assay component(s) measured or calculated from the ATG_TRANS assay. It is designed to make measurements of mRNA induction, a form of inducible reporter, as detected with fluorescence intensity signals by Reverse transcription polymerase chain reaction (RT-PCR) and Capillary electrophoresis technology.Data from the assay component ATG_M_06_TRANS was analyzed into 1 assay endpoint. This assay endpoint, ATG_M_06_TRANS, was analyzed in the positive analysis fitting direction relative to DMSO as the negative control and baseline of activity. Using a type of inducible reporter, measures of mRNA for gain-of-signal activity can be used to understand the background control at the transcription factor-level as they relate to the gene . Furthermore, this assay endpoint can be referred to as a secondary readout, because this assay has produced multiple assay endpoints where this one serves a background control function. To generalize the intended target to other relatable targets, this assay endpoint is annotated to the background measurement intended target family, where the subfamily is internal marker.
Human liver HepG2 cells are transiently transfected with multiple reporter transcription units (MRTUs) in 6-well plates using FuGene 6 reagent (Roche; 3 ml FuGene/1 mg DNA). The MRTU constructs are regulated by a cis-regulating element (promoter). […] A major difference between the CIS and TRANS system is that in CIS activities of endogenous TFs are measured, whereas the TRANS assay evaluates changes in activities of exogenous, chimeric NR-Gal4 proteins. […] At the end of 24 hour incubation, total RNA was isolated using TriZol reagent (Invitrogen). The isolated RNA is then reverse-transcribed using oligo(dT) primer and Mo-MLV reverse transcriptase (Invitrogen) with DNAse I (Ambion) treatment for 30 min. The one-tenth of the produced cDNA was amplified by PCR using Taq DNA polymerase (Invitrogen) and two reporter sequence-specific primers. The PCR products were fluorescently labeled by primer extension with 6-arboxyfluorescein (6-FAM) 5'-labeled reporter sequence-specific primer (2 min at 95 C, 20 s at 68 C and 10 min at 72 C) and these products were digested with 5U of HpaI (New England Biolabs) for 2h at 37 C. The fragments were purified using Qiaquick PCR columns (Qiagen), analyzed on an ABI 3130xL genetic analyzer (Applied Biosystems) with peak positions identified by using a set of X-rhodamine (ROX)-labeled MapMarker1000 molecular weight standards (BioVentures). The raw capillary electrophoresis data was processed using Attagraph software (Attagene).

SMILES | outcome | AC50
CC(O)C1CCCCC1 (stereo not given) | inactive | –
Cc1cc(-n2nc3ccc(Cl)cc3n2)c(O)c(C(C)(C)C)c1 | inactive | –
O=[N+]([O-])c1cc(N(CCO)CCO)ccc1NCCO | inactive | –
Cc1cc(SC2=C(O)C[C@@](CCc3ccc(N)cc3)(C(C)C)OC2=O)c(C(C)(C)C)cc1CO | – | inconclusive: 100 µM
CCOC(=O)[C@H](O)[C@@H](O)C(=O)OCC | – | inconclusive: 100 µM
CCCC[n+]1ccccc1 | – | inconclusive: 154 µM
CCC[Si](OC)(OC)OC | – | inconclusive: 100 µM
CC(=O)CC(C)(C)C1CCCCC1 | – | inconclusive: 100 µM
CCN(Cc1cccc(S(=O)(=O)O)c1)c1ccc(C(=C2C=CC(=[N+](CC)Cc3cccc(S(=O)(=O)O)c3)C=C2)c2ccc(O)cc2S(=O)(=O)[O-])cc1 | – | inconclusive: 66 µM
CC1=Nc2ccc3ccccc3c2C1(C)C | – | inconclusive: 0.0821 µM
C#C[C@]1(O)CC[C@H]2[C@@H]3CCc4cc(O)ccc4[C@H]3CC[C@@]21C | inactive | –
Cc1c(C2(c3cc(Br)c(O)c(Br)c3C)OS(=O)(=O)c3ccccc32)cc(Br)c(O)c1Br | – | inconclusive: 80.5 µM
O=P(O)(O)O | inactive | –
COC(=O)C1CCC(C(=O)OC)CC1 (stereo not given) | – | inconclusive: 210 nM and inconclusive: 2.08 µM
C=C(C)C(=O)OCCC[Si](OC)(OC)OC | – | inconclusive: 5.11 µM
O=C=Nc1cccc2c(N=C=O)cccc12 | – | inconclusive: 0.0812 µM
CCCCCCC(C)Nc1ccc(Nc2ccccc2)cc1 (stereo not given) | inactive | –
NNS(=O)(=O)c1ccc(Oc2ccc(S(=O)(=O)NN)cc2)cc1 | – | inconclusive: 154 µM
CCCCC(CC)COP(=O)(O)OCC(CC)CCCC (stereo not given) | – | inconclusive: 33.4 µM

SMILES | outcome | AC50
CCCCCC[C@@H](O)C/C=C\CCCCCCCC(=O)OCC(O)CO (stereo not given in full) | – | inconclusive: 100 µM
O=[N+]([O-])c1cc(C(F)(F)F)ccc1Cl | inactive | –
C[C@H](CCC(=O)NCC(=O)O)[C@H]1CC[C@H]2[C@@H]3[C@H](O)C[C@@H]4C[C@H](O)CC[C@]4(C)[C@H]3C[C@H](O)[C@]12C | – | inconclusive: 0.0833 µM
C[C@H]1C[C@@H](O)CC(C)(C)C1 | – | inconclusive: 100 µM
O=C1c2ccccc2C(=O)C1c1nc2ccccc2c(Br)c1O | – | inconclusive: 100 µM
CC(O)(P(=O)(O)O)P(=O)(O)O | inactive | –
NCCCCCCN | – | inconclusive: 183 µM
CC(C)Cc1ccc(C(C)C(=O)O)cc1 (stereo not given) | – | inconclusive: 100 µM
Nc1ccc(S(N)(=O)=O)cc1 | inactive | –
CCC(C)CCCC(C)(C)O (stereo not given) | – | inconclusive: 4.67 µM
CC(=O)O[C@H](CC(=O)[O-])C[N+](C)(C)C | – | inconclusive: 0.0827 µM
CCCCCCCCOC(=O)CCCCCCCCC(=O)OCCCCCCCC | – | inconclusive: 3.75 µM
C=CC(=O)OCC(O)COc1ccccc1 (stereo not given) | inactive | –
CCOC(=O)c1ccc(N(C)C)cc1 | – | inconclusive: 100 µM
CO[Si](OC)(c1ccccc1)c1ccccc1 | – | inconclusive: 100 µM
CCCCC[Si](OCC)(OCC)OCC | inactive | –
O=C(O)Cc1c[nH]c2ccccc12 | – | inconclusive: 100 µM
CCc1cccc(C)c1N | – | inconclusive: 26 µM
OCC(F)(F)C(F)(F)C(F)(F)C(F)(F)C(F)(F)C(F)(F)F | – | inconclusive: 50 µM

Whole records, quoted from the list.
`CCOC(=O)c1ccc(N(C)C)cc1` is listed as AC50: inconclusive: 100 µM
`CC(C)Cc1ccc(C(C)C(=O)O)cc1` (stereo not given) is listed as AC50: inconclusive: 100 µM

Reference: PubChem BioAssay (EPA / NIEHS)
